The values that follow come from publication PMC6794296.

Results are given in words; binding and its absence hold for the method and conditions named. In cells and extracts the contact can be indirect. Binding can be weak; no strength is given. Sequences can lack the tags named with a protein.

For this test, the target named is T1, mCherry-tagged phosphatidylinositol 4-phosphate 5-kinase homolog (PIPKH) (human) (UniProt Q5T9C9).
T1 sequence: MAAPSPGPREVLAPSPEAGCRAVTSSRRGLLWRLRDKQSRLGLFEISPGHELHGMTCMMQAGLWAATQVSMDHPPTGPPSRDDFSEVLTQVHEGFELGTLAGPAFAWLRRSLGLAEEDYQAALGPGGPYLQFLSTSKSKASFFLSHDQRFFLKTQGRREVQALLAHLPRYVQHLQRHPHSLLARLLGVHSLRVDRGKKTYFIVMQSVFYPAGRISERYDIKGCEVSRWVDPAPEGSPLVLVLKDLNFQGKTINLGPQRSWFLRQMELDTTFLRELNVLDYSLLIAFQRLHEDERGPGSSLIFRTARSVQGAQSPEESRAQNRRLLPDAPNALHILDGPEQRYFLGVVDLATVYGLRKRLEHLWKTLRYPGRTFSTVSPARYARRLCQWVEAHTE
The test can be described thus: FRET or BRET; FLIM-FRET in CHO cells transiently co-transfected; donor GFP or YFP on PIP5K or Rab protein, acceptor mCherry on PIPKH; lifetime of the donor with and without the acceptor. In general terms: BRET reads energy transfer from a luciferase to a nearby fluorophore.

“GFP-PIP5Kγ87 (from UniProt O60331-4) (enzyme)”: the binding entry was “binds”.
